Results from cells or extracts need not show a direct contact. For some assays here: Tags and fusion partners may be left off the protein sequences shown. For some assays here: Construct, isoform or probe ends are uncertain for at least one entry.
What was measured:
NF-κB p65 (Homo sapiens) = NF-κB p65 (Homo sapiens) (UniProt Q04206); experiment: competition with a labelled probe; conditions: dodecylene (C12) spacer joining the strands; protein in an extract
STAT1 (Homo sapiens) = STAT1 (Homo sapiens) (UniProt P42224); experiment: competition with a labelled probe; conditions: dodecylene (C12) spacer joining the strands; protein in an extract
[1] = molecular target: NF-IL6 (C/EBP) (Homo sapiens) (UniProt P17676); experiment: competition with a labelled probe; conditions: dodecylene (C12) spacer joining the strands; protein in an extract
NFATc1 (Homo sapiens) = molecular target: T1, NFATc1 (Homo sapiens) (UniProt O95644); experiment: competition with a labelled probe; conditions: dodecylene (C12) spacer joining the strands; protein in an extract
T1 sequence (looked up, limits assumed): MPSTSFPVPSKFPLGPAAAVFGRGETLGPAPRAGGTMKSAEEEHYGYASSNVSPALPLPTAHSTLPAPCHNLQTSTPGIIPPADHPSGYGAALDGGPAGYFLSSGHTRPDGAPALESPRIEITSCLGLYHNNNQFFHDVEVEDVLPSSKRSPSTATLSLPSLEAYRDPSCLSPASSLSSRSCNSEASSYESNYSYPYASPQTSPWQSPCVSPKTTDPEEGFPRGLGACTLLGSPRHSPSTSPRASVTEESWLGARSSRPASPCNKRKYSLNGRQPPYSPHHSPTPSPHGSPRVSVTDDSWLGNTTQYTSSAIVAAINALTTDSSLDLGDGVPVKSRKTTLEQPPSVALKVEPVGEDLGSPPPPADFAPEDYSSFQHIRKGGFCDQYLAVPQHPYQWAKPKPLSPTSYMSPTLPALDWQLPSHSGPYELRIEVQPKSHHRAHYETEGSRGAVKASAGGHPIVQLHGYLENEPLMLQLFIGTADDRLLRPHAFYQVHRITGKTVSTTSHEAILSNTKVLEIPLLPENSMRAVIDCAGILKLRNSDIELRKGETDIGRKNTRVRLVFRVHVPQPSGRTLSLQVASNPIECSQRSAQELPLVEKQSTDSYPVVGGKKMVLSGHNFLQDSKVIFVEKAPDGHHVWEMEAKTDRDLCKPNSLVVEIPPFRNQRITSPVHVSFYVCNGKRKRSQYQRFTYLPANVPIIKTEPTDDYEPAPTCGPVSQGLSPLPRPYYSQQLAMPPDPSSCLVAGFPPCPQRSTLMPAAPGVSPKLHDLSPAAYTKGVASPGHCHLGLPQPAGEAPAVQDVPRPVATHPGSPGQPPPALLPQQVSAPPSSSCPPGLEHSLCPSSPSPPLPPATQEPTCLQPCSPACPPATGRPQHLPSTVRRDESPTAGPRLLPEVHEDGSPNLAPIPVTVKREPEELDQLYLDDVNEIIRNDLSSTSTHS

Amino acid sequences for entries named in this document (tags omitted). A change or cut given only in a name is not applied to a line headed by its entry. Residues count along the entry.
UniProt Q04206, whole entry: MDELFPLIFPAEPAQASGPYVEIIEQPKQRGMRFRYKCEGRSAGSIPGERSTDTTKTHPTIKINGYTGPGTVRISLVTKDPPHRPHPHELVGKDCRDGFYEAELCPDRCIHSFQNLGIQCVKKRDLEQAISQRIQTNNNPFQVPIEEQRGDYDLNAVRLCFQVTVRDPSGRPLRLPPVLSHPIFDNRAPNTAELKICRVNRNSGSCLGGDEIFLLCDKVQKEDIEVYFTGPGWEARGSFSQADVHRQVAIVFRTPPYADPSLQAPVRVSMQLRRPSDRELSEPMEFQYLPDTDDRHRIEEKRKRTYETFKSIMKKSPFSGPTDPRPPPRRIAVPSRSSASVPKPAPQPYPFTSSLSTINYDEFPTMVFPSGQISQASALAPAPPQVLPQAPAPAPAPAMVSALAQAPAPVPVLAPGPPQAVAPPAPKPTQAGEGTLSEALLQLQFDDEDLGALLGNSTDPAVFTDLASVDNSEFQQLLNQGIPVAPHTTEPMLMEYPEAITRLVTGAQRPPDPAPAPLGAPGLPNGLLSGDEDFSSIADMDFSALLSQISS
UniProt P42224, 2-750: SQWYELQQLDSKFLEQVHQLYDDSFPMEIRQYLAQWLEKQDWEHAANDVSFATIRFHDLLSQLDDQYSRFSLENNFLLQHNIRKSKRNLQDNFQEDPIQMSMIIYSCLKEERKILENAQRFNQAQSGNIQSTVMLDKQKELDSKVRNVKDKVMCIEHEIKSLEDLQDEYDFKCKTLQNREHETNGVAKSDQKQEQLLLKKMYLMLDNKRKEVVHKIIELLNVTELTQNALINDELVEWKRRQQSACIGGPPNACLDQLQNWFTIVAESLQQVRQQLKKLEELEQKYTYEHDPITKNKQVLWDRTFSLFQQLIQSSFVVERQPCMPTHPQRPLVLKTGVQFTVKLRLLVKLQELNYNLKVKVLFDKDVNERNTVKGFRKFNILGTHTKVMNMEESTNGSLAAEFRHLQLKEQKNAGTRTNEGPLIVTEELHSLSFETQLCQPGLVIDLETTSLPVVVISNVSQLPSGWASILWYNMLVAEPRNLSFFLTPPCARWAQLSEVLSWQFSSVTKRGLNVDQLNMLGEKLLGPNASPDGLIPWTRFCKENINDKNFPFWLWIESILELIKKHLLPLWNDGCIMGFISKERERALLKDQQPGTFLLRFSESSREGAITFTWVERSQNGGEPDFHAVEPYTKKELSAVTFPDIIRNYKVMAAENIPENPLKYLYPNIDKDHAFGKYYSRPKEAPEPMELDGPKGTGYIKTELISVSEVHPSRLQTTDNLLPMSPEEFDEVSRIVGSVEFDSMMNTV
UniProt P17676: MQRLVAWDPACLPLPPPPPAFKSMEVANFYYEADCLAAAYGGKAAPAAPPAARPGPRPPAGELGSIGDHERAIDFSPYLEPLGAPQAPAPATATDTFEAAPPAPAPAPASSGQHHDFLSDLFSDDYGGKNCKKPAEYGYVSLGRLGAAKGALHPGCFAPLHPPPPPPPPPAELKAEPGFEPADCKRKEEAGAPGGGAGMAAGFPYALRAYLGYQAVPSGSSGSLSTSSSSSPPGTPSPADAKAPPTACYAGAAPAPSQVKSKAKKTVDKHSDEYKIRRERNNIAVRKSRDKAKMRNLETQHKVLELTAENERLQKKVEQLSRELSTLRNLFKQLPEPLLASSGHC

STAT6 (Mus musculus) = molecular target: T2, STAT6 (Mus musculus) (UniProt P52633); experiment: EMSA; conditions: lung nuclear extract, poly(dI-dC), room temperature 30 min; reduced after chimeric decoy treatment in vivo; protein in an extract; protein details: nuclear extract of OVA-challenged mouse lung; label: 32P 3' end
T2 sequence (looked up, limits assumed): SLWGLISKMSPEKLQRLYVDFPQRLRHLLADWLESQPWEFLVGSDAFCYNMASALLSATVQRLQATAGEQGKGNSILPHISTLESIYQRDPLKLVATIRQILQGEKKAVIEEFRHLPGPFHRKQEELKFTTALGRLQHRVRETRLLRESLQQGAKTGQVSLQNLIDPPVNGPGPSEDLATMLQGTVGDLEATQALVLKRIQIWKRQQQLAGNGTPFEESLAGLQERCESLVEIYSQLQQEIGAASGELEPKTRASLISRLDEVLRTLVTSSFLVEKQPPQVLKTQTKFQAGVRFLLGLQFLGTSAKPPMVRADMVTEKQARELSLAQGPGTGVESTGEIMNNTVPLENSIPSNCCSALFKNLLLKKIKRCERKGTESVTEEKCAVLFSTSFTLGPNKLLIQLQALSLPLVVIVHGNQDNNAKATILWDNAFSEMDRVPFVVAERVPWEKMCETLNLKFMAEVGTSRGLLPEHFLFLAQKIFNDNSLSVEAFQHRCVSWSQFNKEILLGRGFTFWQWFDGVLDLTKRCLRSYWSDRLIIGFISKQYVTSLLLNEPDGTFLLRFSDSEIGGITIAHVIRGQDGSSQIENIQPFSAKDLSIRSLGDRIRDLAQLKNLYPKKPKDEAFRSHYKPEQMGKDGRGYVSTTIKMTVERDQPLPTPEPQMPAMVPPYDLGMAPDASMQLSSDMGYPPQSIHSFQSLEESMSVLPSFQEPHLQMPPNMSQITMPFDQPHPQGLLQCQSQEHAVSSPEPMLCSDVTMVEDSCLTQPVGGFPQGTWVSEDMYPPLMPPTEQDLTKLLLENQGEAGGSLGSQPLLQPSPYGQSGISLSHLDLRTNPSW

| Sequence | IC50 (NF-κB p65 (Homo sapiens)) | further results |
| --- | --- | --- |
| GGGACTTCCAGGAAT [NF-κB/STAT1-15mer-A] | 31.8 nM | IC50 (STAT1 (Homo sapiens)): 13.9 nM |
| GGGATTTCCCAATCT [NF-κB/NF-IL6-15mer-A] | 2.28 nM | IC50 [1]: > 400 nM |
| GGGGACTTCCTGCTC [NF-κB/Ets1-15mer-A] | 5.51 nM |  |
| GGGATTTCCTGGGAA [NF-κB/STAT6-15mer-B] | 3.61 nM |  |
| GGGGACTTCCGGGTG [NF-κB/Ets1-15mer-B] | 6.09 nM |  |
| GGGATTCCGCAATCT [NF-κB/NF-IL6-15mer-B] | 9.51 nM | IC50 [1]: 165 nM |
| GGGACTTCCCGGAAT [NF-κB/STAT1-15mer-B] | 9.94 nM | IC50 (STAT1 (Homo sapiens)): 19.1 nM |
| GGGGGATTTTCCTCT [NF-κB/NF-AT-15mer-B] | 1.67 nM | IC50 (NFATc1 (Homo sapiens)): 146 nM |
| GTATTTCCCAGAAAAGGAAC (double strand) [STAT6 EMSA probe] |  | binding result (STAT6 (Mus musculus)): binds |
| GGGACTTCCCATGAA [NF-κB/STAT6-15mer-A] | 18.8 nM |  |
| GGGGAATTTTCCTCT [NF-κB/NF-AT-15mer-A] | 5.69 nM | IC50 (NFATc1 (Homo sapiens)): 133 nM |

Source: US20180298381
